Results from patent US20200109207A1.
No constants are given. Whether binding was seen depends on the method and setting. A result given as binding can be weak or reduced; the word gives no strength.

Experiments:
[1] = target: recombinant cynomolgus CD27-FLAG-HIS (cynomolgus); assay: ELISA, plate coated with recombinant cynomolgus CD27-FLAG-HIS; hybridoma supernatants
[2] = target: recombinant cynomolgus CD27-FLAG-HIS (cynomolgus); assay: ELISA, plate coated with recombinant cynomolgus CD27-FLAG-HIS; hybridoma supernatants, anti-rat IgG Fc-HRP detection

- binding [1]: binds
- binding [2]: binds
B1: anti-CD27 human monoclonal antibody 2B3 (antibody, V domains shown)
VH: QVQLVQSGAEVKKPGASVKVSCKASGYTFTGYYIHWVRQAPGQGLEWMGWINPNSGGTNSAQKFQDRVTITRVTSINTAYMELSRLRSDDTAVYFCARDRLVLPWFGEIFPDAFDIWGQGTLVTVSS
VL: EIVMTQSPATLSVSPGERATLSCRASQSIRSNLAWYQQKPGQAPRLLIYGASTRATGIPARFSGSGSGTEFTLTISSLQSENFAVYYCQQYNNWPLTFGGGTKVEIK
